According to the supplement of paper PMC3334620:
Over roughly 33,000 sequences, “E-score (-0.5 to 0.5)” has its median near -0.016; the highest 2% begin near 0.3. Some of the results follow.

Target: T1, Yer184c (UniProt P39961)
T1 sequence: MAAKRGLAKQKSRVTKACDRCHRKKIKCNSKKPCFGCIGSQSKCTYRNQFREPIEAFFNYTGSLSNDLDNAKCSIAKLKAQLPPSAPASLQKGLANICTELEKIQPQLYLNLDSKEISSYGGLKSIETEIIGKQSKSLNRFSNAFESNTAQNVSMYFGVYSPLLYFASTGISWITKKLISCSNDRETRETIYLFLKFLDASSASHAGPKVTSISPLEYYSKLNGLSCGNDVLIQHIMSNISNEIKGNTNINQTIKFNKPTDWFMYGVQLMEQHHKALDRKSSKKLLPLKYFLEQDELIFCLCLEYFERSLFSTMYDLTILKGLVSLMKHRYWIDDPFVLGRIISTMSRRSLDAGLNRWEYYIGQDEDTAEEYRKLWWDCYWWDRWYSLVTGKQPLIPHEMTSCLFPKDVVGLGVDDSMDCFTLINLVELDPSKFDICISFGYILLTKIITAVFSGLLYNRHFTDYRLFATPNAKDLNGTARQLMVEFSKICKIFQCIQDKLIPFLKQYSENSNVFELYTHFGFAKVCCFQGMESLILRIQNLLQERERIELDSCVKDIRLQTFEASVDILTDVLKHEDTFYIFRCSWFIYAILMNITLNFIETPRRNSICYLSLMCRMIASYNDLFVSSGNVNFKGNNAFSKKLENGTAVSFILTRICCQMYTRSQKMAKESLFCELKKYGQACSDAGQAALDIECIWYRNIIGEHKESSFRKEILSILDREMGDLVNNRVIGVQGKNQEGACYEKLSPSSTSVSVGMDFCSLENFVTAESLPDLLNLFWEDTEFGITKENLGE
Assay: PBM E-score (8-mer binding enrichment) (E-score (-0.5 to 0.5)); higher = stronger / more preferred TF binding
Details: protein concentration: 100 nM; construct: GST-full length
Method in brief: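 The E-score, a modified Wilcoxon-Mann-Whitney statistic, was computed by the Universal PBM Analysis Suite for every ungapped eight-base word pooled with its reverse complement. Scans behind it were normalised with masliner after bound GST-tagged yeast transcription factors were detected with fluorescent anti-GST. The proteins, at about 100-200 nM, had been applied to universal all-10-mer Agilent arrays made double-stranded by primer extension.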

Sequence | PBM E-score
CTAAATCA | 0.073
GTACCCGA | -0.0538
ACACTGCT | -0.244
CTCTCCGA | 0.149
TACATGAA | -0.0446
CACCTCGG | 0.201
ACTGGACT | -0.112
GGAACTCC | 0.124
AGGACATA | 0.089
GACATAAA | 0.128
GTCCTGTA | 0.00961
GTATCCTA | -0.0431
CACAGACG | -0.113
TAGTTTCA | 0.0864
GTAAATAA | 0.151
GACAGTCA | -0.0835
AGTAGCTC | -0.00154
ATATGCCG | 0.234
ACTCGTGA | -0.19
CGTCCCGC | 0.0669
AACGTTCG | 0.0214
AAGATAGC | 0.0451
AAGCTTTG | -0.00525
TCAGGTCA | 0.0231
ATGTGAGC | -0.298

Sequence | PBM E-score
CCGGGTGA | 0.258
AAGTGCGT | -0.109
CTCGGCAG | 0.31
AAGCACCT | -0.0698
GCATAAAA | 0.217
CACCTGCG | -0.113
ATATTGGC | -0.0624
ACGGAGCG | 0.185
AACAGAAT | 0.0416
GTATTCAA | 0.177
GAAAGAGA | -0.0018
ACCGTCCC | -0.066
CTTCTAGA | -0.0806
ATCCGCTG | -0.00718
AACTTCCG | 0.298
ACTTTAAT | 0.0699
ATGCAGTA | 0.0594
ATTAAGAC | 0.0147
CCTGATTC | -0.0358
ATATCACG | -0.0542
CGCATAAA | 0.129
GCACTCAA | -0.108
ACCCCGGA | 0.142
TGTACACA | 0.126
ACTACTTG | -0.145

Sequence | PBM E-score
ATTTCTAC | 0.157
GCACGTGA | -0.0956
AACTTAAC | 0.266
GAAGCACA | 0.0735
CAATCCCG | 0.195
ATACCGTG | 0.0737
CCCCGGGG | 0.281
ACCTGGGC | -0.377
GGTTGAAC | 0.0281
CATTAACG | 0.0762
AAGAATCA | 0.122
ACACATGT | 0.0127
GCGTGTCC | 0.0203
CATTCAGA | 0.0525
ATCCGCTA | 0.0589
AAGGCAAT | 0.00623
AAGCCCAG | -0.201
ATAGCCTG | -0.0249
GGTGTTGA | -0.226
CGCCCCGC | -0.017
ACACATCC | 0.0937
GACTGCAA | -0.259
ACATAGAC | -0.073
AACGTACT | -0.00247
TCCAATAA | 0.243

Sequence | PBM E-score
AAAAGGCA | 0.11
AAAGTGCT | -0.0291
ATACTGGA | 0.0367
AGCACCGA | 0.221
AAAGGATT | -0.157
CAACCACA | 0.123
CTGACAAA | 0.156
ACCGGGGA | -0.0487
ACACTGCA | -0.172
ACGTTTGG | -0.142
AGCCAACC | -0.0201
AAGACGAC | -0.0814
TGAGATCA | 0.0936
CTTCTTCC | -0.125
CTAGAGTC | -0.305
AGAGACTC | -0.0795
CGAGTGCG | 0.0421
AAGGCATC | -0.0324
CTAAAGCA | 0.126
ATGTATCG | 0.0991
ATCAGGTG | 0.00296
GTGTAAAC | 0.126
ATTATCGC | 0.208
CCAATTCC | 0.229
AACTGTGG | 0.051

Seven records picked at random from those above:
Sequence | PBM E-score
ACACTGCA | -0.172
ACCGGGGA | -0.0487
AAAGTGCT | -0.0291
CCAATTCC | 0.229
AAAGGATT | -0.157
ATACTGGA | 0.0367
ATTATCGC | 0.208

The listing continues.

Sequence | PBM E-score
CGGAAAAA | 0.394
AGGCAGGC | -0.0599
AGGGTATG | -0.21
ATGGACAA | 0.128
ACCAGAAC | 0.0162
AGAAAGGA | -0.0781
ATTTAACA | 0.0905
AATCAAAT | 0.0737
CGCGTCAG | -0.254
GAGAGGAA | -0.116
ATACTCAT | 0.0111
ACCTCTCC | -0.142
CTTAATAC | 0.00233
AAAGATCG | -0.00326
CGTCTCAG | 0.0391
AACTCGAG | 0.0336
GAAGGGAA | -0.203
GAATTTGA | 0.14
TAAGACTA | -0.0449
GAGAATCC | 0.0247
CAGGGTCC | -0.0878
CAGATTAC | 0.0782
ACGATGTA | -0.00499
CGATGATA | 0.152
CGAGCGTA | 0.0419

Sequence | PBM E-score
CATAGCTC | -0.0893
ACAGTGGA | -0.0563
AACAGTGA | -0.0862
GTACAGTA | -0.0271
AGTCACAG | -0.106
CCCCCGCA | -0.203
CAGAAAGG | -0.123
TTACGCAA | 0.0884
AACGCATA | 0.0315
CTGTGTTC | 0.093
TCCGAAGA | 0.376
CAATACCC | -0.181
ACCGACGG | 0.158
CGCAATAG | -0.0415
CGATGGCA | 0.0144
CAGGGAAG | -0.216
CGGAGAAC | 0.14
TACGCTCA | -0.0428
GTGATAAA | 0.179
GCGTCCAA | -0.025
TGGCGAAA | 0.0101
TAGCACAA | -0.00731
CTTCAATA | 0.135
AGCTAATC | 0.0408
TAGCCAGA | 0.0229

Some of the entries so far, tab-delimited:
Sequence	PBM E-score
CTAAAGCA	0.126
ATGTATCG	0.0991
ATCAGGTG	0.00296

(list continues)

Sequence | PBM E-score
GTCCACGA | -0.129
GGAGCTAC | -0.113
AGAGTCTG | -0.22
ACGCTCGC | -0.00392
TGTTACAA | 0.231
GAGATCTA | -0.184
CATATGAA | 0.0245
GTACTCGA | -0.113
AATTGTAA | 0.0139
ACAGGGAA | -0.0722
AGCCCAGC | -0.151
AGAGTGCA | -0.111
GAGTGTCA | 0.0744
TAGACGAA | 0.0936
AAGAACCC | -0.0463
ACCATAAA | 0.148
CCCAATAC | -0.179
GGAGTGTA | -0.236
ATTTACCC | -0.0431
GCCCACCA | -0.33
AACTTGTA | -0.0251
CCCAAGCG | -0.156
